Test results taken from the supplement of paper PMC11006884.
The list shows a part of the results, in another mix than the full data.

Sequences of proteins named here, by UniProt entry; tags and fusion partners are left off. A change or cut given only in a name is not applied to a line headed by its entry.
UniProt Q9UGP4: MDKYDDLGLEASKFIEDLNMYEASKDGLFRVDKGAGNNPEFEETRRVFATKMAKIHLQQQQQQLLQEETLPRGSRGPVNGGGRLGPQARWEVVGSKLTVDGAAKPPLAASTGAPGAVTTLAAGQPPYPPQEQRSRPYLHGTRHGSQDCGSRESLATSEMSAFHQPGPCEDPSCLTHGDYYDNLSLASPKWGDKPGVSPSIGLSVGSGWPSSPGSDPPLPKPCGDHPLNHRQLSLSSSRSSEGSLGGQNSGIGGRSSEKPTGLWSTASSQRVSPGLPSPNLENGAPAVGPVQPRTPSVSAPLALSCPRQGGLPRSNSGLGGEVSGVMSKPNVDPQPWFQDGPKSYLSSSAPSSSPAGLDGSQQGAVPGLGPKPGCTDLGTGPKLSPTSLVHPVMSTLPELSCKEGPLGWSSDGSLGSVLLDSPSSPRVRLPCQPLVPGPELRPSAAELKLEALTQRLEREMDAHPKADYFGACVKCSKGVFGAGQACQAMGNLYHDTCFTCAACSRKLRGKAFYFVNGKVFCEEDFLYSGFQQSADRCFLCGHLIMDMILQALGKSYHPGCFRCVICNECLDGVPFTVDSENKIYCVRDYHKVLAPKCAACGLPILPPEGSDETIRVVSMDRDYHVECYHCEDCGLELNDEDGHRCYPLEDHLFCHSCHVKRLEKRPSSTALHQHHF
UniProt Q9UET6: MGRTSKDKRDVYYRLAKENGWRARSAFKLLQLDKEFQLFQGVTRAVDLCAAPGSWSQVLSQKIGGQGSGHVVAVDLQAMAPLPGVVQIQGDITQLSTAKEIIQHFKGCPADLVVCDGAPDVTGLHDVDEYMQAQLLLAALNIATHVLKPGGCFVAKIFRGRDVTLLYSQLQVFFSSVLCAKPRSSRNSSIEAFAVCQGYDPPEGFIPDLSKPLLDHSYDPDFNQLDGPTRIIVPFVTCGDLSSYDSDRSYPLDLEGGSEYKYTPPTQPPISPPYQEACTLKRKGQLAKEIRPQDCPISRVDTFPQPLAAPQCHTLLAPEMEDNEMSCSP
UniProt Q9UBD5: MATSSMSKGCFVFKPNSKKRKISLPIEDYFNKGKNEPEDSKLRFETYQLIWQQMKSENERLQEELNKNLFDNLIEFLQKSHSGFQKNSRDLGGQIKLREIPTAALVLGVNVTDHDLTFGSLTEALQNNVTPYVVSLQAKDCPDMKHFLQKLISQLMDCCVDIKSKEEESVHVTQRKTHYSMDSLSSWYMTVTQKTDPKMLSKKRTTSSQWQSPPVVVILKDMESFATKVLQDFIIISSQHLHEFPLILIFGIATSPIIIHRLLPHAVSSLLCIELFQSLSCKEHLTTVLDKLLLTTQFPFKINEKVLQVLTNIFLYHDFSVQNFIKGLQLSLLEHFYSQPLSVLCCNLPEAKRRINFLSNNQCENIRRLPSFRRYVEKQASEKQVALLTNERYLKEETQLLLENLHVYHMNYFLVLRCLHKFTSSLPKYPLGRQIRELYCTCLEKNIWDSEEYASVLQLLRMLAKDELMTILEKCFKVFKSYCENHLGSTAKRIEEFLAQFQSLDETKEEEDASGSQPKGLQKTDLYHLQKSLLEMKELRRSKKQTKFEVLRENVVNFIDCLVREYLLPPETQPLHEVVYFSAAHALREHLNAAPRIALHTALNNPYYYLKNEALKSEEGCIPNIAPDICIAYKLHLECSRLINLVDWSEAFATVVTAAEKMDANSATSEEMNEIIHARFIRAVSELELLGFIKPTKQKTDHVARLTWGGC
UniProt Q9P2J5: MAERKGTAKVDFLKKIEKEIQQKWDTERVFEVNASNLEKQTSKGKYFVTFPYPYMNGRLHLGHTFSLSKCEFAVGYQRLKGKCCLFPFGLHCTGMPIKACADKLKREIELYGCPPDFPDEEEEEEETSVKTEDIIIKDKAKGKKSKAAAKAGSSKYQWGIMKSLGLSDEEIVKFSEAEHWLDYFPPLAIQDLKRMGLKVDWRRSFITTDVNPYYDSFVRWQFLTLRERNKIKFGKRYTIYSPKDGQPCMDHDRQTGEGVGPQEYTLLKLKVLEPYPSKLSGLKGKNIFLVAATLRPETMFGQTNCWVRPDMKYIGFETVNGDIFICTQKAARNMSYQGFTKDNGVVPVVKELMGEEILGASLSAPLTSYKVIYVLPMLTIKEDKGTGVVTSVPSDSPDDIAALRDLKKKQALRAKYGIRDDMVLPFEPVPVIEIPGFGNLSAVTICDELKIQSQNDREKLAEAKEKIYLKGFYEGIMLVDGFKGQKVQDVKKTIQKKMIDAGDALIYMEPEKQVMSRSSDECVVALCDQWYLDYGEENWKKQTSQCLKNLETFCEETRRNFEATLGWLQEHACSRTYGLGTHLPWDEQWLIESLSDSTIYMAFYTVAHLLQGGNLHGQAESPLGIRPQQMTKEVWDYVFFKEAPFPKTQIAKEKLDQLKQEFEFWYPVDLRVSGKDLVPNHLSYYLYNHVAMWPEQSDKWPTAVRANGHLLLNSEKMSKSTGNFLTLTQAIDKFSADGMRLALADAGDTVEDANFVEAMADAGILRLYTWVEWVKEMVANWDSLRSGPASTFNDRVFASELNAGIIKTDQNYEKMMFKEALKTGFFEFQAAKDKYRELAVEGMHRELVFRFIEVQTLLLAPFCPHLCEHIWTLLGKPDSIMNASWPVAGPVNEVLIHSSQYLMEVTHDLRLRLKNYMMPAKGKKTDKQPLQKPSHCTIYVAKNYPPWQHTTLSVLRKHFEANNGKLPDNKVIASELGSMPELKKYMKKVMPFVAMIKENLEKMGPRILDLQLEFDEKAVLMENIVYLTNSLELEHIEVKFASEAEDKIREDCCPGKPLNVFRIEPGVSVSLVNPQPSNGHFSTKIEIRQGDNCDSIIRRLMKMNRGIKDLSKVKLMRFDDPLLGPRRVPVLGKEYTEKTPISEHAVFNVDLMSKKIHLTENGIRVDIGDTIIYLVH
UniProt Q9NVN8: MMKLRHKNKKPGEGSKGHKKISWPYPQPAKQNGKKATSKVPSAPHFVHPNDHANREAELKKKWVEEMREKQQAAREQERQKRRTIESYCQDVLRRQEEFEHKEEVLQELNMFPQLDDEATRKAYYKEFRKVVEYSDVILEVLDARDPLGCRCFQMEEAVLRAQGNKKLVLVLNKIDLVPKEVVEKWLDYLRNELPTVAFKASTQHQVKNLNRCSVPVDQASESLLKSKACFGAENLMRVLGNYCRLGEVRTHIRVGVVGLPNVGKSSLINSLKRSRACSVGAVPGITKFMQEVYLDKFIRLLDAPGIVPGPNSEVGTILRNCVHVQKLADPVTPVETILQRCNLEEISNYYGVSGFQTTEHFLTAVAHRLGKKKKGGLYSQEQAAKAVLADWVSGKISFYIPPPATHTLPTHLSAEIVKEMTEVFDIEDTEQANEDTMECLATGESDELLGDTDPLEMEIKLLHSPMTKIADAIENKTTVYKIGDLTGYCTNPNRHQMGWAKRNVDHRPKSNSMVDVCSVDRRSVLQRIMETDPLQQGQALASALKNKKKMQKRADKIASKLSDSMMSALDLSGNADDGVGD
UniProt Q9NZT2: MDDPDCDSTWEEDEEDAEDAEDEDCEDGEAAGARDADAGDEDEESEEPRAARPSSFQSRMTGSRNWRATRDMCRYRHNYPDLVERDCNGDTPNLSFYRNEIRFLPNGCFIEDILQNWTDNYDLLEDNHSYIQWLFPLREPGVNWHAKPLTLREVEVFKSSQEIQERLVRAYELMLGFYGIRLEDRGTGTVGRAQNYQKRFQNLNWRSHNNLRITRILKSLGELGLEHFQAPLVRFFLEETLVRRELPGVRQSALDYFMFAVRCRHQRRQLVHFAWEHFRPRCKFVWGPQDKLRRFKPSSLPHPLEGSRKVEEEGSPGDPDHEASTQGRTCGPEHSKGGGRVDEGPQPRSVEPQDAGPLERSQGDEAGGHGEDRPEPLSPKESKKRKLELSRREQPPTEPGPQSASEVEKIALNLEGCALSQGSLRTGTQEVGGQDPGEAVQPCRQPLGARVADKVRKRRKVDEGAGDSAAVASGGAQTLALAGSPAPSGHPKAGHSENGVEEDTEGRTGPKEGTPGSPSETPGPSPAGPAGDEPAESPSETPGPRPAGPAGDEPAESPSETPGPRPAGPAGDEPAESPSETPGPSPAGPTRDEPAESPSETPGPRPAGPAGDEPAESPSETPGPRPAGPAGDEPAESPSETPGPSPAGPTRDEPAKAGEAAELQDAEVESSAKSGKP
UniProt Q9NXU5: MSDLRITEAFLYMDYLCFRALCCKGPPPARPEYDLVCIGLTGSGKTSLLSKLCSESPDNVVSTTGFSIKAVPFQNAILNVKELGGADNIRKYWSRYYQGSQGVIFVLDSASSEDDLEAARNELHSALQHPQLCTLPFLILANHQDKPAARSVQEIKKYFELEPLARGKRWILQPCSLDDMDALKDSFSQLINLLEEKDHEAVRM
UniProt Q9P253: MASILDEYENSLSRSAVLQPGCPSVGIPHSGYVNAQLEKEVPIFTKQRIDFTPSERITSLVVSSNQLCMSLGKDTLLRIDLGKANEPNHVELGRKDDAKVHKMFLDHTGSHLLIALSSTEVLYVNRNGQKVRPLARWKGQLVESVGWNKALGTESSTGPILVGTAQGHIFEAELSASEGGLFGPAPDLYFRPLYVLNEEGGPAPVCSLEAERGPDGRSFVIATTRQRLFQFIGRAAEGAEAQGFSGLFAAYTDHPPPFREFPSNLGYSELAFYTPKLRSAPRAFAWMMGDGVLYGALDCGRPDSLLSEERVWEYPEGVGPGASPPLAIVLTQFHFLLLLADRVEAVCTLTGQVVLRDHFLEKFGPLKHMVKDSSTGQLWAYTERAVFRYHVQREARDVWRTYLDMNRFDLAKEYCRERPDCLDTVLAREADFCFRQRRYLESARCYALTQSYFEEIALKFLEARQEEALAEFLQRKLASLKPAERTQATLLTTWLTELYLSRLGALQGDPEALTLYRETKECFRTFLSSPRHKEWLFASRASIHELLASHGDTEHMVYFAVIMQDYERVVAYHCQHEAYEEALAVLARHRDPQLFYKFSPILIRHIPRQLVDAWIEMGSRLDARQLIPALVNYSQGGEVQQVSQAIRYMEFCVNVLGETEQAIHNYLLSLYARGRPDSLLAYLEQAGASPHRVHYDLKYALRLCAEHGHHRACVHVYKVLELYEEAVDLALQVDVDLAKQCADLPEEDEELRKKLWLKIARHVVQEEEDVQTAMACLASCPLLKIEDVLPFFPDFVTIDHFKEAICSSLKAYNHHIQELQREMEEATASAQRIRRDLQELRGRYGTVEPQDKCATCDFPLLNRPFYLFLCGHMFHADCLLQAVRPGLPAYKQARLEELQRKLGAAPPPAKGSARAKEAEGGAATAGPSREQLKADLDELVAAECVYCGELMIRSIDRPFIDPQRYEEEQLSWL
UniProt Q9UDY2: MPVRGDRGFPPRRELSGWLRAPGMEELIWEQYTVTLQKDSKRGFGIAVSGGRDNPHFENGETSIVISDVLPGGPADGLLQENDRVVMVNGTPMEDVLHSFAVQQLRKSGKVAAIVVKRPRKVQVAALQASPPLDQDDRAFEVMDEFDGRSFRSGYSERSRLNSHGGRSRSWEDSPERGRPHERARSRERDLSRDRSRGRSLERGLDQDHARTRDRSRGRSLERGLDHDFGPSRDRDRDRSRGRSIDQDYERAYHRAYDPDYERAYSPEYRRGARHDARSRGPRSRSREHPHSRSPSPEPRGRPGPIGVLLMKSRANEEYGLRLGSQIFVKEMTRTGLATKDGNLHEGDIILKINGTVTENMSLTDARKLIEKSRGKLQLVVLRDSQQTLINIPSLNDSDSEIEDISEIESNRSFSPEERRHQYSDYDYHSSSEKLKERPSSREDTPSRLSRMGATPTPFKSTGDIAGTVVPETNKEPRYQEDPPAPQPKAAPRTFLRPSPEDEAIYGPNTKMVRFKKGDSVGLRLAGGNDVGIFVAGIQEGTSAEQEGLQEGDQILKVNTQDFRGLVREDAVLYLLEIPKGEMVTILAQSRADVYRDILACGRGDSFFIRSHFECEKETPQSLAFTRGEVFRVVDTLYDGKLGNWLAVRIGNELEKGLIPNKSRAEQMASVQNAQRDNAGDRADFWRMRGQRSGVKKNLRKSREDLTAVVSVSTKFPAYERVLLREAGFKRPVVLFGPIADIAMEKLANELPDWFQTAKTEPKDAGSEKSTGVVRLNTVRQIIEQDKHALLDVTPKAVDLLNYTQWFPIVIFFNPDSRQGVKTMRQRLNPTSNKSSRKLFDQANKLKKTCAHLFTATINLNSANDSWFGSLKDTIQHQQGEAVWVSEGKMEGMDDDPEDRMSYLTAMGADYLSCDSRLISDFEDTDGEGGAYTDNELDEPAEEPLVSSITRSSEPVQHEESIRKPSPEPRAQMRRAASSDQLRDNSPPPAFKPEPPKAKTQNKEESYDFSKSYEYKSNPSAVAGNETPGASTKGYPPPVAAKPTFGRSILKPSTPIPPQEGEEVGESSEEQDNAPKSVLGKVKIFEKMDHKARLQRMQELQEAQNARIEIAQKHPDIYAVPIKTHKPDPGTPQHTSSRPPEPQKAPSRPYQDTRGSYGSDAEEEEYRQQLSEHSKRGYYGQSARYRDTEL

Each target was assayed with COC(=O)C#Cc1ccccc1 [methyl 3-phenylpropiolate] (assay: log2 ratio of iodoacetamide-alkyne labeling of the cysteine site, DMSO over compound (competition); higher = stronger covalent engagement of the cysteine by the compound, active = 1 or more). Settings: 500 µM; treatment time 1 h; system: HEK293T cell lysate.
In short: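 Three replicates, each with duplicate channels, were prepared from HEK293T lysate (2 mg/mL) treated with vehicle or electrophile at 500 µM for 1 h at ambient temperature. Iodoacetamide alkyne was then applied for 1 h, and samples were clicked to sCIP-TMT reagents, pooled, trypsin-digested overnight at 37 °C, enriched on streptavidin, acid-eluted and analysed on Orbitrap Eclipse LC-MS/MS with FAIMS, with FragPipe quantification. The log2 competition ratio per cysteine is the mean control-channel divided by the mean compound-channel reporter intensity. Cysteines quantified in only one replicate were left out.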

Row | Target | log2 ratio of iodoacetamide-alkyne labeling
1 | FANCI C56 (UniProt Q9NVI1) | inactive: 0.281
2 | SLTM C568 (UniProt Q9NWH9) | inactive: 0.222
3 | LIMD1 C374 (UniProt Q9UGP4) | inactive: 0.393
4 | COPG2 C446 (UniProt Q9UBF2) | inactive: 0.463
5 | UBAP1 C161 (UniProt Q9NZ09) | inactive: 0.103
6 | FTSJ1 C238 (UniProt Q9UET6) | inactive: -0.0249
7 | ANKFY1 C1159 (UniProt Q9P2R3) | inactive: 0.475
8 | ANKFY1 C742 (UniProt Q9P2R3) | inactive: 0.439
9 | ADPRHL2 C287 (UniProt Q9NX46) | inactive: 0.184
10 | TES C46 (UniProt Q9UGI8) | inactive: -0.228
11 | TRMT1 C621 (UniProt Q9NXH9) | inactive: -0.0886
12 | CXXC1 C531 (UniProt Q9P0U4) | inactive: 0.253
13 | UniProt Q9NWY4_C152 | inactive: 0.039
14 | UniProt Q9UBD5_C363 | inactive: 0.31
15 | LARS C573 (UniProt Q9P2J5) | inactive: 0.342
16 | GNL3L C518 (UniProt Q9NVN8) | inactive: 0.778
17 | OGFR C87 (UniProt Q9NZT2) | inactive: 0.518
18 | UniProt Q9NWR8_C324 | active: 1.65
19 | ARL15 C53 (UniProt Q9NXU5) | inactive: 0.218
20 | DAXX C338 (UniProt Q9UER7) | inactive: 0.306
21 | VPS18 C445 (UniProt Q9P253) | inactive: -0.049
22 | TJP2 C601 (UniProt Q9UDY2) | inactive: 0.237

Quoted at random: 2 entries already listed.
Row | Target | log2 ratio of iodoacetamide-alkyne labeling
2 | SLTM C568 (UniProt Q9NWH9) | inactive: 0.222
10 | TES C46 (UniProt Q9UGI8) | inactive: -0.228
